# Source: the supplement of paper PMC10032668
# The chains behind the UniProt entries cited, without tags or fusion partners.
# ATP6V0D1, P61421, UniProt P61421, whole entry: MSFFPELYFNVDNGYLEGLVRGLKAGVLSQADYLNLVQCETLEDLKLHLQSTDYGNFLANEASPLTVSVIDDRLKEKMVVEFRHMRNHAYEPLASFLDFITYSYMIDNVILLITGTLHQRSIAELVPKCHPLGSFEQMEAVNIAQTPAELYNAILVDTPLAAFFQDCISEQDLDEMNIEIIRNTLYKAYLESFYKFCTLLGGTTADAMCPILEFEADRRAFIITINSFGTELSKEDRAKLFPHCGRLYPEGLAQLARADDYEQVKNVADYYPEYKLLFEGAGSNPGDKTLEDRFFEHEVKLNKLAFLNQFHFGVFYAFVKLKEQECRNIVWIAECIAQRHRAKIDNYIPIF
# CASC3, O15234, UniProt O15234, whole entry: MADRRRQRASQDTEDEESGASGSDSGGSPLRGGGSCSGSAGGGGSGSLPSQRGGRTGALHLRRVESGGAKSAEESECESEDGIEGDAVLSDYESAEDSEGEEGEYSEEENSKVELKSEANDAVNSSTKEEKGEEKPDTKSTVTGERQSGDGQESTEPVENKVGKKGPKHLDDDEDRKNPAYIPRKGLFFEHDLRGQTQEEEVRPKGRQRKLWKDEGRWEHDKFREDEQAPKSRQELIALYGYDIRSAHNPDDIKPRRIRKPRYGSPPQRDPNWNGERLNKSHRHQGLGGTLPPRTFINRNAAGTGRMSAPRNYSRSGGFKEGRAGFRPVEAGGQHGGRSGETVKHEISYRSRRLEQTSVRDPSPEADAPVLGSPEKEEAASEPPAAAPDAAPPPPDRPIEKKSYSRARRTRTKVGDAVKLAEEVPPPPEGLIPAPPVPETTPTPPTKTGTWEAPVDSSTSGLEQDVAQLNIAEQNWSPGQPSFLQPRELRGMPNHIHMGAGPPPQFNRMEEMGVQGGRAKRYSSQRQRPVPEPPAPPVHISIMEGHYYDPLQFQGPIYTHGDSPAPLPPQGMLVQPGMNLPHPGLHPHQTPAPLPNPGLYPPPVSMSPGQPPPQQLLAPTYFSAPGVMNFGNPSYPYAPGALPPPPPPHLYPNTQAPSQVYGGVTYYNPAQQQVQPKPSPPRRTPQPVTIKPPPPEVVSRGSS
# EIF1, P41567, UniProt P41567, whole entry: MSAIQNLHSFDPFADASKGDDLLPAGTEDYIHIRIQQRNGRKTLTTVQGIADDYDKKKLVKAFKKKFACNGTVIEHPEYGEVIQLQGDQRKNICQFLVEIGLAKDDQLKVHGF
# MORF4L1, Q9UBU8, UniProt Q9UBU8, whole entry: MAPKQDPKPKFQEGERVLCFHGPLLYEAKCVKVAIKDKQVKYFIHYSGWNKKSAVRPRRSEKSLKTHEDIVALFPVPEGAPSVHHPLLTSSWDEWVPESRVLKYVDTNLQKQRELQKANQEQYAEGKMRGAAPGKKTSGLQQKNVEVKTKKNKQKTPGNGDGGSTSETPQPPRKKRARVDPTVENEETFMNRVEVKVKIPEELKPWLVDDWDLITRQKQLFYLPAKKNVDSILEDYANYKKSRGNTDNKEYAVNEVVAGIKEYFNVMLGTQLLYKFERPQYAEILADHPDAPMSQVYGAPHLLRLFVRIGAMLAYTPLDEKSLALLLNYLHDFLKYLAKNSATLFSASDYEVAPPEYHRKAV
# MORF4L2, Q15014, UniProt Q15014, whole entry: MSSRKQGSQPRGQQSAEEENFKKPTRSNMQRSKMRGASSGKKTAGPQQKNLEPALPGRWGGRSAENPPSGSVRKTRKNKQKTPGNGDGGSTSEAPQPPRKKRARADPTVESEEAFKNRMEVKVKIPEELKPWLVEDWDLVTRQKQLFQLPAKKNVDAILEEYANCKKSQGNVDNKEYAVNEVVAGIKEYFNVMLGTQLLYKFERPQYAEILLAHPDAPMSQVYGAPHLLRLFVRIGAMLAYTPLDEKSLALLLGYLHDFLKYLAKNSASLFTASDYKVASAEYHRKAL
# NDUFB7, P17568, UniProt P17568, whole entry: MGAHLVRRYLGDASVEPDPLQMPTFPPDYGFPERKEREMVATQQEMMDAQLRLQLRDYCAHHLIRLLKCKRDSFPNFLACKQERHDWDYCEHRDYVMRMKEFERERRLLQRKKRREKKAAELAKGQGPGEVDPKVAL
# PLK1, P53350, UniProt P53350, whole entry: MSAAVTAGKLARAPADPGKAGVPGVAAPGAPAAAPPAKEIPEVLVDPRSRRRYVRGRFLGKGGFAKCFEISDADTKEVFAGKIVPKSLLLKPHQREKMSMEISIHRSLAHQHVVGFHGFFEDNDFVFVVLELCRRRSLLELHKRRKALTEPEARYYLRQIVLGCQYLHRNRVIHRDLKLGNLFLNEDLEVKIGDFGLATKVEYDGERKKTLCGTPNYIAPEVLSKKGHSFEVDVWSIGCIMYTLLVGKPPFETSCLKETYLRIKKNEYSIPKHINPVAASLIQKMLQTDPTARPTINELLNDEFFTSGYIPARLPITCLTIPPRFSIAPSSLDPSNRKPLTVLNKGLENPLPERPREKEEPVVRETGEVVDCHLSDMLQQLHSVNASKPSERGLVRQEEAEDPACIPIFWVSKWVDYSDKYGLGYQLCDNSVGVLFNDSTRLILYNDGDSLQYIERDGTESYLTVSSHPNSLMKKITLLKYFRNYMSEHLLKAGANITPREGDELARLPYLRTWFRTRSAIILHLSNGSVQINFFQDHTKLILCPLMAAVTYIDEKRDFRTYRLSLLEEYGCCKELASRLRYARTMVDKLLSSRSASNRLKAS
# CAMK2D, Q13557, UniProt Q13557, whole entry: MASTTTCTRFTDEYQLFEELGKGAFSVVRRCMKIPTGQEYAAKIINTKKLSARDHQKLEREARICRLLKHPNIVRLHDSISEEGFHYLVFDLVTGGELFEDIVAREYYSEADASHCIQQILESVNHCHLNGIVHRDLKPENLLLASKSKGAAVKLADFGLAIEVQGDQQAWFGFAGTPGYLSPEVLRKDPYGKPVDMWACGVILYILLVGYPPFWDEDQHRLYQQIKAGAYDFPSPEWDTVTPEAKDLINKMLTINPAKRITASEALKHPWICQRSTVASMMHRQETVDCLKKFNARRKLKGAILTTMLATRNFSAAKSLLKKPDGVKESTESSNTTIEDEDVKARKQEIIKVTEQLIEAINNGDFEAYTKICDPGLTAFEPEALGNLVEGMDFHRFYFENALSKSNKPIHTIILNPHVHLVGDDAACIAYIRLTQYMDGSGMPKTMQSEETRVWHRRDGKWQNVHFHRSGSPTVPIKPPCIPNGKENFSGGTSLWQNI
# SRPK1, Q96SB4, UniProt Q96SB4, whole entry: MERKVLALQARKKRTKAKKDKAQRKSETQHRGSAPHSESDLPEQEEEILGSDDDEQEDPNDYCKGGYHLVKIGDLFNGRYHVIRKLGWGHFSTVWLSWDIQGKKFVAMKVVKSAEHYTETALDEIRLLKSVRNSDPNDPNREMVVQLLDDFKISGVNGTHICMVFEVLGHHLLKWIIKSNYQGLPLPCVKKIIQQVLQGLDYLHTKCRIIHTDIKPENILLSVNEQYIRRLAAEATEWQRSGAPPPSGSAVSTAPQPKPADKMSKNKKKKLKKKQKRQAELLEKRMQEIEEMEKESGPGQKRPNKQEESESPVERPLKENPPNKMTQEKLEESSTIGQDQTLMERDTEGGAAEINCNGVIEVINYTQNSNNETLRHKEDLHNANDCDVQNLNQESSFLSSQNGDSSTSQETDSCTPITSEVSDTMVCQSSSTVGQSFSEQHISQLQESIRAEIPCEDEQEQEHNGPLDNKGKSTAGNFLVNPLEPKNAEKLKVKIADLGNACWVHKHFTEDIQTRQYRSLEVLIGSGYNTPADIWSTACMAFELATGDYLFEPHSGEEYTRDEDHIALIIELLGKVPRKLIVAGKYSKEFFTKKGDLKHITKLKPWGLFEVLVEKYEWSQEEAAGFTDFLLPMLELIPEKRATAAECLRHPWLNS
# CKS2, P33552, UniProt P33552, whole entry: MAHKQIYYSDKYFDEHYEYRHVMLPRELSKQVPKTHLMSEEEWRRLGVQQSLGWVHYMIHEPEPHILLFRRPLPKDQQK
# PPP2R5D, Q14738, UniProt Q14738, whole entry: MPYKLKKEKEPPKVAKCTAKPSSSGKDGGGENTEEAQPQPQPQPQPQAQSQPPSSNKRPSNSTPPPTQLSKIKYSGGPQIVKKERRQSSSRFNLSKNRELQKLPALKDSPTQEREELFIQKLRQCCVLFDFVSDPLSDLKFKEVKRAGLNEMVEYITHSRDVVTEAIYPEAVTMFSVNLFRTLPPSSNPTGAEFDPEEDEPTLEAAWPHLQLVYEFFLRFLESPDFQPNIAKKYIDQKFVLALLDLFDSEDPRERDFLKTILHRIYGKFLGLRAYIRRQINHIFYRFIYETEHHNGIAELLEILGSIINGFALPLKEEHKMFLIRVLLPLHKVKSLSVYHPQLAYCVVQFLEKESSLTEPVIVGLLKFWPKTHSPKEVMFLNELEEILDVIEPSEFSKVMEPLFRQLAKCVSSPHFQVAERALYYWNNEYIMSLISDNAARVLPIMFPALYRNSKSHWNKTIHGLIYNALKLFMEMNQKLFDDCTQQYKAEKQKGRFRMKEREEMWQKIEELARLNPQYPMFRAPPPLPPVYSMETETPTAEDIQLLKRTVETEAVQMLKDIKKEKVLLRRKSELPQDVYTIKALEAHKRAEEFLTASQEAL
# ± gives the standard deviation of the averaged measurements. The list shows a part of the results. Only hits are listed; about a third recur on repeated control peptides.
# Assays:
# Assay in all cases: PRISMA enrichment of interactor (LFQ) in peptide spot vs all other peptide spots (log2 fold change); higher = stronger / more specific binding of the interactor to the peptide
# ALYREF, Q86V81 = target: ALYREF, Q86V81
# Method: (§1)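 PRISMA: 15-aa overlapping tiles (offset 8 aa) of 60 microproteins, plus SOS1/GLUT1 control peptides, were spot-synthesized on cellulose membranes in triplicate. Membranes were incubated with benzonase-treated HEK293T lysate, and bound proteins were identified by LC-MS/MS with LFQ. Enrichment is the log2 fold change of each protein in one spot versus all other spots. Only interactors passing the significance cutoff are listed.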
# ATP6V0D1, P61421 = target: ATP6V0D1, P61421
# Method: as §1
# C19orf53, Q9UNZ5 = target: C19orf53, Q9UNZ5
# Method: as §1
# CASC3, O15234 = target: CASC3, O15234
# Method: as §1
# CFAP20, Q9Y6A4 = target: CFAP20, Q9Y6A4
# Method: as §1
# CSNK1A1, P48729 = target: CSNK1A1, P48729
# Method: as §1
# CSNK1D, P48730 = target: CSNK1D, P48730
# Method: as §1
# CSNK1E, P49674 = target: CSNK1E, P49674
# Method: as §1
# CXorf56, Q9H5V9 = target: CXorf56, Q9H5V9
# Method: as §1
# DDX42, Q86XP3 = target: DDX42, Q86XP3
# Method: as §1
# DDX49, Q9Y6V7 = target: DDX49, Q9Y6V7
# Method: as §1
# EIF1, P41567 = target: EIF1, P41567
# Method: as §1
# EMG1, Q92979 = target: EMG1, Q92979
# Method: as §1
# FAM98B, Q52LJ0 = target: FAM98B, Q52LJ0
# Method: as §1
# FHL1, Q13642 = target: FHL1, Q13642
# Method: as §1
# GABARAPL2, P60520 = target: GABARAPL2, P60520
# Method: as §1
# HDDC2, Q7Z4H3 = target: HDDC2, Q7Z4H3
# Method: as §1
# MORF4L1, Q9UBU8 = target: MORF4L1, Q9UBU8
# Method: as §1
# MORF4L2, Q15014 = target: MORF4L2, Q15014
# Method: as §1
# NDUFB7, P17568 = target: NDUFB7, P17568
# Method: as §1
# PLK1, P53350 = target: PLK1, P53350
# Method: as §1
# [1] = substrate: PPIB, P23284
# Method: as §1
# [2] = substrate: PPIF, P30405
# Method: as §1
# RBMX, P38159 = target: RBMX, P38159
# Method: as §1
# SERF2, P84101 = target: SERF2, P84101
# Method: as §1
# SHMT1, P34896 = target: SHMT1, P34896
# Method: as §1
# SRP14, P37108 = target: SRP14, P37108
# Method: as §1
# STRAP, Q9Y3F4 = target: STRAP, Q9Y3F4
# Method: as §1
# ZNF22, P17026 = target: ZNF22, P17026
# Method: as §1
# CALU, O43852 = target: CALU, O43852
# Method: as §1
# CAMK2D, Q13557 = target: CAMK2D, Q13557
# Method: as §1
# CAMK2G, Q13555 = target: CAMK2G, Q13555
# Method: as §1
# CHTOP, Q9Y3Y2 = target: CHTOP, Q9Y3Y2
# Method: as §1
# CSRP2, Q16527 = target: CSRP2, Q16527
# Method: as §1
# MRPL46, Q9H2W6 = target: MRPL46, Q9H2W6
# Method: as §1
# PCLAF, Q15004 = target: PCLAF, Q15004
# Method: as §1
# PRKCSH, P14314 = target: PRKCSH, P14314
# Method: as §1
# SRPK1, Q96SB4 = target: SRPK1, Q96SB4
# Method: as §1
# CKS2, P33552 = target: CKS2, P33552
# Method: as §1
# GAR1, Q9NY12 = target: GAR1, Q9NY12
# Method: as §1
# PPP2R5D, Q14738 = target: PPP2R5D, Q14738
# Method: as §1
# WDR5, P61964 = target: WDR5, P61964
# Method: as §1
binder,measurement,setting,value
DHREFLSTCECFSAS [NAV2-AS2_2],PRISMA enrichment of interactor (log2),"ALYREF, Q86V81",5.61 ± 0.14
same,PRISMA enrichment of interactor (log2),"ATP6V0D1, P61421",5.58
same,PRISMA enrichment of interactor (log2),"C19orf53, Q9UNZ5",7.84
same,PRISMA enrichment of interactor (log2),"CASC3, O15234",4.15
same,PRISMA enrichment of interactor (log2),"CFAP20, Q9Y6A4",4.36
same,PRISMA enrichment of interactor (log2),"CSNK1A1, P48729",5.82
same,PRISMA enrichment of interactor (log2),"CSNK1D, P48730",4.68
same,PRISMA enrichment of interactor (log2),"CSNK1E, P49674",5.21
same,PRISMA enrichment of interactor (log2),"CXorf56, Q9H5V9",5.45
same,PRISMA enrichment of interactor (log2),"DDX42, Q86XP3",7.04
same,PRISMA enrichment of interactor (log2),"DDX49, Q9Y6V7",5.7
same,PRISMA enrichment of interactor (log2),"EIF1, P41567",5.1
same,PRISMA enrichment of interactor (log2),"EMG1, Q92979",7.34
same,PRISMA enrichment of interactor (log2),"FAM98B, Q52LJ0",5.55
same,PRISMA enrichment of interactor (log2),"FHL1, Q13642",3.95
same,PRISMA enrichment of interactor (log2),"GABARAPL2, P60520",4.56
same,PRISMA enrichment of interactor (log2),"HDDC2, Q7Z4H3",4.22
same,PRISMA enrichment of interactor (log2),"MORF4L1, Q9UBU8",4.68
same,PRISMA enrichment of interactor (log2),"MORF4L2, Q15014",5.97
same,PRISMA enrichment of interactor (log2),"NDUFB7, P17568",4.82
same,PRISMA enrichment of interactor (log2),"PLK1, P53350",5.14
same,PRISMA enrichment of interactor (log2),[1],6.2
same,PRISMA enrichment of interactor (log2),[2],6.27
same,PRISMA enrichment of interactor (log2),"RBMX, P38159",5.23
same,PRISMA enrichment of interactor (log2),"SERF2, P84101",5.52
same,PRISMA enrichment of interactor (log2),"SHMT1, P34896",4.08
same,PRISMA enrichment of interactor (log2),"SRP14, P37108",4.99
same,PRISMA enrichment of interactor (log2),"STRAP, Q9Y3F4",4.45
same,PRISMA enrichment of interactor (log2),"ZNF22, P17026",4.37
TLRRTALSWWESVDI,PRISMA enrichment of interactor (log2),"ALYREF, Q86V81",5.7
same,PRISMA enrichment of interactor (log2),"C19orf53, Q9UNZ5",6.92
same,PRISMA enrichment of interactor (log2),"CALU, O43852",6.57
same,PRISMA enrichment of interactor (log2),"CAMK2D, Q13557",4.32
same,PRISMA enrichment of interactor (log2),"CAMK2G, Q13555",4.62
same,PRISMA enrichment of interactor (log2),"CHTOP, Q9Y3Y2",5.2
same,PRISMA enrichment of interactor (log2),"CSRP2, Q16527",5.01
same,PRISMA enrichment of interactor (log2),"EMG1, Q92979",4.79
same,PRISMA enrichment of interactor (log2),"FAM98B, Q52LJ0",6.28
same,PRISMA enrichment of interactor (log2),"GABARAPL2, P60520",5.22
same,PRISMA enrichment of interactor (log2),"MRPL46, Q9H2W6",4.92
same,PRISMA enrichment of interactor (log2),"PCLAF, Q15004",4.14
same,PRISMA enrichment of interactor (log2),[2],4.94
same,PRISMA enrichment of interactor (log2),"PRKCSH, P14314",4.53
same,PRISMA enrichment of interactor (log2),"SRPK1, Q96SB4",6
same,PRISMA enrichment of interactor (log2),"ZNF22, P17026",4.32
RRTALSWWESVDITG,PRISMA enrichment of interactor (log2),"ALYREF, Q86V81",5.44
same,PRISMA enrichment of interactor (log2),"C19orf53, Q9UNZ5",6.84
same,PRISMA enrichment of interactor (log2),"CHTOP, Q9Y3Y2",5.62
same,PRISMA enrichment of interactor (log2),"CKS2, P33552",5.05
same,PRISMA enrichment of interactor (log2),"CXorf56, Q9H5V9",4.7
same,PRISMA enrichment of interactor (log2),"GABARAPL2, P60520",6.03
same,PRISMA enrichment of interactor (log2),"GAR1, Q9NY12",5.63
same,PRISMA enrichment of interactor (log2),"PPP2R5D, Q14738",5.28
same,PRISMA enrichment of interactor (log2),"PRKCSH, P14314",5.62
same,PRISMA enrichment of interactor (log2),"WDR5, P61964",5.63

# Random excerpt: 4 records from the list, in no set order.
binder,measurement,setting,value
TLRRTALSWWESVDI,PRISMA enrichment of interactor (log2),[2],4.94
DHREFLSTCECFSAS [NAV2-AS2_2],PRISMA enrichment of interactor (log2),"EMG1, Q92979",7.34
TLRRTALSWWESVDI,PRISMA enrichment of interactor (log2),"CHTOP, Q9Y3Y2",5.2
RRTALSWWESVDITG,PRISMA enrichment of interactor (log2),"GABARAPL2, P60520",6.03
